US20110195432A1, “METHODS FOR THE SELECTION OF THERAPEUTIC TREATMENTS FOR CANCER” (priority 2008, published 2011)
These are yes or no findings as the source states them, for the method shown. In cells and extracts the contact can be indirect. Some entries that bind do so weakly or less than the wild type.

By UniProt entry, the sequences of proteins in these tests, tags left out.
UniProt P10275: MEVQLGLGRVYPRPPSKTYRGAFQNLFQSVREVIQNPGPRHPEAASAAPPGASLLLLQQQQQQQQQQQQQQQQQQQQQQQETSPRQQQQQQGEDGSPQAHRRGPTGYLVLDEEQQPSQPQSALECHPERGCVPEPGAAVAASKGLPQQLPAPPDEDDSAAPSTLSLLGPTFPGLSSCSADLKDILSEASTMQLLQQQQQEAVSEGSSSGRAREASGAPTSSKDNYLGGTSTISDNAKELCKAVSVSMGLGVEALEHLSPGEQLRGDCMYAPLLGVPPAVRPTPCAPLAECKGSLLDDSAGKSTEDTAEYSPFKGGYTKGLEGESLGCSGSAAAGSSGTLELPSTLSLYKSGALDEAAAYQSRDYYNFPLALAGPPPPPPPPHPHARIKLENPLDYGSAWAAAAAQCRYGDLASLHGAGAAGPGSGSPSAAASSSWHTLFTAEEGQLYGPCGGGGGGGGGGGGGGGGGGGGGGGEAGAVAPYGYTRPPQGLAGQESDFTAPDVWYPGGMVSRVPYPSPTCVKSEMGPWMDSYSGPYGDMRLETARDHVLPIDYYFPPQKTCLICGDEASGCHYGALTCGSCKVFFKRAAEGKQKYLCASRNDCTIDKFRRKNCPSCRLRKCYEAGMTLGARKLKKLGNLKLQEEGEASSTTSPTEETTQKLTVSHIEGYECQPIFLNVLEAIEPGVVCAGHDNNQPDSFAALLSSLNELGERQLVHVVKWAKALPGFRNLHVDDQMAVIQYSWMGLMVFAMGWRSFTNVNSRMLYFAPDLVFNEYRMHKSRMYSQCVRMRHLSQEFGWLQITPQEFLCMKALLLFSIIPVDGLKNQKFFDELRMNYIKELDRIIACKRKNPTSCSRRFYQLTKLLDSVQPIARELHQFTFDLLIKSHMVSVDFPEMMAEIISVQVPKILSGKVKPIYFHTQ

How the values were obtained:
Androgen receptor (AR) [1] = target: Androgen receptor (AR) (UniProt P10275); assay: co-immunoprecipitation and Western blot, LNCaP cell lysates, vehicle versus sulforaphane
Androgen receptor (AR) [2] = target: Androgen receptor (AR) (UniProt P10275); assay: co-immunoprecipitation with antibodies to HSP90, AR, acetylated lysine and IgG, Western blot for AR (FIG. 1C legend)
Androgen receptor (AR) [3] = target: Androgen receptor (AR) (UniProt P10275); assay: co-immunoprecipitation with anti-HSP90 antibody and Western blot for AR, LNCaP cell lysates, vehicle versus 20 uM sulforaphane for 4 h

Measured: binding

Heat shock protein 90 (HSP90) (from UniProt P07900 2-732)
binds: all assays above
